# Reference: PMC12040169 (PLOS Biology, 2025)
# The other results are listed elsewhere or left out.
# Test system: T1, CTL2-GFP (C. trachomatis L2/434/Bu, GFP-expressing)
# T1 construct: L2/434/Bu, GFP-expressing
# Design: species or system HeLa; Intracellular C. trachomatis growth in HeLa cells, bulk GFP fluorescence relative to DMSO
# Details: bulk GFP, single well; 28.5 h, 10 µM; inhibitor
row,SMILES,% of control remaining [%]
1,CC(=O)c1c(C(C)=O)c(C)n(-c2ccc(C(=O)O)cc2)c1C [CBK287036],129.002
2,COC(=O)CCSc1nc(C)nc2c1c(=O)n(C)c(=O)n2CC(C)C [CBK305891],105.814
3,Fc1ccc(COc2ccc(Cl)cc2CNCc2ccccn2)cc1 [CBK269899C],150.554
4,O=C(O)c1ccc2c(c1)C(=O)N(C1=NCCS1)C2=O [CBK021809],130.404
5,O=S(=O)(Nc1cccc(-c2cnco2)c1)c1ccc(Br)cc1C(F)(F)F [CBK067118],123.969
6,Cc1cc(NS(=O)(=O)c2ccc(Br)cc2C(F)(F)F)n(C)n1 [CBK067255],113.935
7,COc1cccc(OCC(O)CN(C)S(=O)(=O)O)c1 (stereo not drawn) [CBK027121N],120.633
8,Cc1ccc(C(=O)NNC(=O)/C=C\C(=O)O)cc1 [CBK261842],108.551
9,O=C(NCCc1cccnc1)C1CCCN(c2nc3c(-c4ccccc4)csc3c(=O)[nH]2)C1 (stereo not drawn) [CBK215495],159.697
10,C#CCNC(=O)C1CCN(c2nc3ccccc3n2C)CC1 [CBK283956],140.481
11,CC(C)Nc1cncc(SCCN(C)C)n1 [CBK105292],119.686
12,Cc1ccc(C)c(NC(=O)C(Cc2ccccc2)N2C(=O)c3cc(Cl)c(Cl)cc3C2=O)c1 (stereo not drawn) [CBK264232],116.057
13,CCOC(=O)C1CCCN(CCC(=O)Nc2cc(C)ccc2C)C1 (stereo not drawn) [CBK264287C],100
14,Cc1c(Cl)c(C(F)(F)F)nn1CCCNC(=S)Nc1ccc(S(N)(=O)=O)cc1 [CBK267113],93.6949
15,Cc1n[nH]c(-c2ccccc2NS(=O)(=O)c2cnn(C(C)C)c2)n1 [CBK306377],117.312
16,COC(=O)[C@@H]1Cc2ncn(C)c2CN1S(=O)(=O)c1cccs1 [CBK288992],116.312
17,COC(=O)c1ccc(CN2CCCC2)cc1 [CBK029023],187.315
18,O=C(CCn1c(C(F)(F)F)cc2cccnc21)N1CCCC1 [CBK284962],100.347
19,CCc1c(C)nc2c(C(=O)N3CCCC3COC)cnn2c1C (stereo not drawn) [CBK162146],107.644
20,Cc1cc(C)n(CCC(=O)N2CCC(c3ccncc3)CC2)n1 [CBK283529],100.607
21,COc1ccc(OC(C)C(=O)O/N=C(\N)c2ccccn2)cc1 (stereo not drawn) [CBK266669],152.318
22,CC(C)(C)NC(=O)N/N=C/c1[nH]ncc1Br [CBK017439],109.947
23,CCN(CC)C(=O)CNS(=O)(=O)c1ccc(OC)c(OC)c1 [CBK034499],100.93
24,COc1ccc(F)cc1S(=O)(=O)N1CCCN(S(=O)(=O)c2cc(F)ccc2OC)CC1 [CBK266555],123.762
25,C[C@@H](c1ccccc1)N1C(=O)[C@@H]2CN(C(=O)COCC(=O)O)CCN2C1=O [CBK289636],146.907
26,CCn1c(CC2CCN(c3nc(C)cc(C)c3C#N)CC2)nn(C)c1=O [CBK307027],98.8127

# Shown with tabs: entries from further up.
row	SMILES	% of control remaining [%]
3	Fc1ccc(COc2ccc(Cl)cc2CNCc2ccccn2)cc1 [CBK269899C]	150.554
10	C#CCNC(=O)C1CCN(c2nc3ccccc3n2C)CC1 [CBK283956]	140.481
20	Cc1cc(C)n(CCC(=O)N2CCC(c3ccncc3)CC2)n1 [CBK283529]	100.607

# The results go on.

row,SMILES,% of control remaining [%]
1,Cc1cc(CN2CCN(C(C)c3nc(C(C)(C)C)no3)CC2)no1 (stereo not drawn) [CBK305641],124.884
2,Nc1ncc(-c2cncnc2)nc1NCC1CCOCC1 [CBK063877],182.73
3,Oc1cccc(C(O)CNCc2ccc(OCc3ccc(Cl)cc3Cl)cc2)c1 (stereo not drawn) [CBK267621C],99.0386
4,O=C(O)C[C@]1(C(=O)NC2CCCCCC2)CC(c2ccc(Cl)cc2)=NO1 [CBK286716],91.2268
5,CNS(=O)(=O)c1ccc(C)c(C(=O)N(C)Cc2cnn(C)c2)c1 [CBK304026],99.8982
6,Nc1ccc(-c2ncccc2O)cc1 [CBK262937C],113.803
7,O=C1N=C(Nc2cccc(O)c2)S/C1=C1\C(=O)Nc2ccccc21 [CBK265549],88.7407
8,Cc1nn(CC(=O)N2CCCC2)c(=O)c2cc3ccsc3n12 [CBK284057],145.172
9,O=C(NCCCn1ccnc1)c1cc(-c2ccc(Br)cc2)nc2ccccc12 [CBK262645],17.1893
10,CN(C)C(=O)[C@@]1(O)CCC2(c3ccc(Cl)cc3)CCCN(C)C2C1 (stereo partly drawn) [CBK005234],87.2717
11,COc1cccc(-c2csc(NS(=O)(=O)c3ccc(C)c(C(=O)O)c3)n2)c1 [CBK299803],161.073
12,CC1=C[C@@H](CNS(C)(=O)=O)[C@H](C(C)C)C[C@H]1CC(=O)N1CCOCC1 [CBK289050],138.352
13,CCCCSc1nnc(-c2cc3c(C(F)(F)F)nn(C)c3s2)n1C [CBK019526],143.763
14,CC(C)C(=O)Nc1cc2cccnc2nc1-c1ccccc1 [CBK073647],191.079
15,Nc1nc(O)cc(C2CCN(CCOc3ccccc3F)C2)n1 (stereo not drawn) [CBK304726],123.708
16,CC(C)(C)OC(=O)NC1CCC(NCc2ccccc2Br)CC1 (stereo not drawn) [CBK056684],109.005
17,CSCC(=O)N1C[C@@H]2C[C@H](C1)c1c(-c3ccc(NC(C)=O)cc3)ccc(=O)n1C2 [CBK289200],107.863
18,Nc1cccc(-c2nc(NC(=O)c3ccncc3)cnc2-c2ccc(F)c(Cl)c2)c1 [CBK037573],74.2048
19,CCOc1ccccc1CN(C)c1cc(C2CC(N)C2)nc(N)n1 (stereo not drawn) [CBK307308],159.106
20,COc1ccc(CCNCC2OCCc3cccc(OC)c32)cc1OC (stereo not drawn) [CBK024032C],105.965
21,OCCN(CCO)c1cncc(-c2cccc3ccccc23)n1 [CBK065812],120.792
22,O=C(O)CCc1ccc(-c2ccc(F)cc2)n1CC1CCCO1 (stereo not drawn) [CBK268988],168.423
23,Cc1cc(/C=N/NC(=O)C(=O)NCc2ccccn2)c(C)n1-c1cccc(Br)c1 [CBK263815],112.153
24,Cc1ccccc1NC(=O)Nc1ccc(OCc2ccccc2)cc1 [CBK262861],121.939
25,COc1ccc2[nH]c3c(=O)n(C)cnc3c2c1 [CBK025870],105.02
